# Results taken from PubChem BioAssay AID2685 (National Center for Advancing Translational Sciences (NCATS), 2010).
# This is one part of the list. Shown are side measurements of this screen, not its main read-out; they come without a call. The list favours compounds with an active or inconclusive main result. Words in brackets tell the shape of the fitted curve; partial curves, single points and poor fits give uncertain potencies.
# Experiment: qHTS Assay for Lipid Storage Modulators in Drosophila S3 Cells;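 on cell number change: cells counted by Cell Tracker Red CMTPX staining in the red channel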
# Conditions: BODIPY lipid droplet fluorescence, 18-24 h; for cell number change: measured here: cell count max response, cells fed with added oleic acid
# Outline: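 Laser-scanning cytometry quantifies lipid droplet accumulation (500–530 nm total intensity; droplet/cell object ratio) in oleic acid-fed (400 uM added) Drosophila S3 cells treated with a concentration series. 20 uM Triacsin C defined 100% inhibition.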
# [1] = measured here: lipid fluorescence (Fed channel) AC50, cells fed with added oleic acid
# [2] = measured here: cell number channel AC50, cells fed with added oleic acid
SMILES,cell number change [%],AC50 [1],AC50 [2]
CNc1nc(Nc2ccc(C)c(Cl)c2)c2cnn(C)c2n1,-23.4,"11.6 µM [falling, partial curve]",–
O=C(N1CCCC1)C(F)(F)Oc1ccc(F)cc1,-22.2,"29.1 µM [falling, single point]","3.66 µM [falling, single point]"
C=CC(=O)N=c1sc2ccccc2n1-c1ccccc1,-70.3,–,"18.4 µM [falling, single point]"
O=C(CNS(=O)(=O)c1ccc(Br)s1)NCc1ccc2c(c1)OCO2,23.2,"4.11 µM [rising, partial curve]",–
CC(=O)Nc1ccc(S(=O)(=O)Nc2ccc(S(=O)(=O)N3CCCCCC3)cc2)cc1,-6.22,–,–
CCC(C)(C)NC(=O)C(c1ccc(OC)cc1)N(C(=O)CCC(=O)Nc1cc(C)on1)c1ccc2c(c1)OCO2 (stereo unspecified),20,"1.16 µM [rising, single point]",–
COc1ccccc1N1C(=O)c2cccc3c(C(=O)O)ccc(c23)C1=O,-5.48,"0.517 µM [rising, full curve, poor fit]",–
CS(=O)(=O)N(CC(=O)N1CCOCC1)c1cc(C(F)(F)F)ccc1Cl,0.265,"16.4 µM [rising, partial curve]",–
O=C(O)c1ccccc1C(=O)OCCCCOC(=O)c1ccccc1C(=O)O,3.75,"0.00461 µM [falling, full curve]","6.51 µM [rising, single point]"
CCOc1ccc2oc(C(=O)N(CCOC)c3c(N)n(CC(C)C)c(=O)[nH]c3=O)c(C)c2c1,2.27,"0.731 µM [rising, single point]","1.16 µM [rising, full curve, poor fit]"
CN(C)S(=O)(=O)N1C(=O)c2ccccc2C1=O,-50.4,"0.092 µM [rising, full curve, poor fit]","25.9 µM [falling, partial curve]"
COc1cc(/C=C/c2nc3ccccc3c(=O)[nH]2)cc(Br)c1O,8.47,"29.1 µM [rising, single point]",–
CC(C)(C)n1nc2c(c1NC(=O)Cc1cccs1)CSC2,28,"6.51 µM [rising, full curve, poor fit]",–
CCc1cccc(N(C(=O)c2csnn2)C(C(=O)NC2CCCCC2)c2ccncc2)c1 (stereo unspecified),-13.3,–,–
Cn1c(SCC(=O)Nc2ccccc2-c2ccccc2)nnc1-c1ccco1,–,"0.731 µM [rising, full curve]","0.731 µM [rising, full curve]"
CC(OC(=O)Cc1cccc(C(F)(F)F)c1)C(=O)Nc1ccc(Cl)cn1 (stereo unspecified),–,"0.00411 µM [rising, full curve, poor fit]",–
CCOc1ccc(-n2c(SCC(=O)Nc3nccs3)nnc2-c2ccoc2C)cc1,1.17,"9.2 µM [rising, partial curve, poor fit]",–
CCc1ccc(N2CCN(C(=O)c3ccc(OC)c(OC)c3)CC2)cc1,4.08,–,–
O=C1c2ccccc2C(=O)N1c1ncn[nH]1,19.8,"25.9 µM [rising, partial curve, poor fit]",–
O=C(Nc1nnc(SCc2ccc(F)cc2)s1)C1CC(=O)N(Cc2ccccc2)C1 (stereo unspecified),32.1,–,"18.4 µM [rising, single point]"

# Some of the entries so far, with tabs.
SMILES	cell number change [%]	AC50 [1]	AC50 [2]
CC(C)(C)n1nc2c(c1NC(=O)Cc1cccs1)CSC2	28	6.51 µM [rising, full curve, poor fit]	–
Cn1c(SCC(=O)Nc2ccccc2-c2ccccc2)nnc1-c1ccco1	–	0.731 µM [rising, full curve]	0.731 µM [rising, full curve]

# Next records.

SMILES,cell number change [%],AC50 [1],AC50 [2]
CCc1nccn1CCC(=O)N1CCCC(N2CCN(c3ccccc3C)CC2)C1 (stereo unspecified),33,–,–
CC(=O)Nc1ccc(-c2ccc(NC(C)=O)cc2)cc1,47.4,"0.116 µM [rising, full curve, poor fit]","4.61 µM [rising, full curve]"
COCCNc1nc(NCc2ccccc2)c2cnn(C)c2n1,20.2,"0.00411 µM [rising, full curve, poor fit]",–
CC(=O)c1c(C)[nH]c(C(=O)CN2C(=O)NC(C)(c3ccc4c(c3)OCO4)C2=O)c1C (stereo unspecified),-39.1,–,"20.6 µM [falling, single point]"
Cc1ccc(-c2csc(N3CCN(c4cc5c(cc4Cl)nc(-c4ccncc4)n5CCOCCO)CC3)n2)cc1,-12.3,–,–
Cc1ccc(C(=O)NC2CC(C)(C)NC(C)(C)C2)cc1Cl,-9.07,"29.1 µM [rising, single point]",–
O=C(NCCCN1CCOCC1)/C(=C/c1ccco1)NC(=O)c1ccccc1,38.2,"0.501 µM [falling, full curve, poor fit]","23.1 µM [rising, single point]"
CC1Cc2ccccc2N1C(=O)CSc1nnnn1Cc1ccccc1 (stereo unspecified),-17.8,–,"0.00411 µM [falling, full curve, poor fit]"
Cc1ccc(C)c(OCCOCCN2CC(C)OC(C)C2)c1C (stereo unspecified),163,–,–
Cc1ccc(NC(=O)COC(=O)C2C3CC4OC(=O)C2C4C3)cc1Cl (stereo unspecified),15.8,"5.62 µM [falling, single point]",–
CCCn1c(CCC(=O)O)ccc1-c1ccc(OC)cc1,-25.8,"1.64 µM [falling, full curve, poor fit]","0.291 µM [falling, full curve, poor fit]"
CN(C)C(=O)N1CCN(S(=O)(=O)c2ccc3ccccc3c2)CC1,7.04,"14.6 µM [falling, single point]",–
COc1ccc(C(F)(F)F)cc1NC(=O)c1nc2nc(C)cc(C(F)F)n2n1,–,"0.259 µM [falling, partial curve, poor fit]",–
Cn1c(NC(=O)c2ccco2)c(-c2ccc(Cl)cc2)c(=O)c2ccccc21,–,"6.51 µM [falling, single point]",–
COc1ccc(C=C2C=C(C(C)(C)C)C(=O)C(C(C)(C)C)=C2)cc1OC,-47,–,"10.3 µM [falling, partial curve, poor fit]"
C=CCn1c(SCC(=O)N2CCN(c3ccccc3)CC2)nnc1-c1ccco1,77.7,"20.6 µM [rising, partial curve]","20.6 µM [rising, partial curve]"
O=C(CC(=O)c1ccccc1)Nc1cccnc1,-26.3,"2.59 µM [falling, single point]",–
CCc1sc(C(=O)N2CCN(S(C)(=O)=O)CC2)cc1Br,–,"0.58 µM [falling, single point]","0.58 µM [falling, single point]"
Cc1cccc(OCC(=O)N/N=C/c2cn[nH]c2-c2ccc(Cl)c(Cl)c2)c1,-14.4,"29.1 µM [falling, single point]",–
CCCCN(CCCC)Cc1ccc(C(=O)NNC(=O)Nc2ccc(F)cc2)o1,35.9,"0.103 µM [falling, partial curve, poor fit]",–

SMILES,cell number change [%],AC50 [1],AC50 [2]
Cc1nn(C)cc1NC(=O)c1ccc(Br)o1,5.22,"16.4 µM [rising, single point]",–
COCCn1c(=O)[nH]c2cc(C(=O)OC)ccc2c1=O,16.6,–,"0.58 µM [rising, partial curve, poor fit]"
CCN(C(=O)c1cc(S(=O)(=O)N2CCCCC2)c[nH]1)c1ccc(OC)cc1,28.7,"29.1 µM [rising, single point]",–
O=c1sc2ccccc2n1COc1ccc(Cl)cc1,59.6,"0.731 µM [rising, full curve]","25.9 µM [rising, single point]"
COC(=O)c1ccc(CN2CCC(n3nccc3NC(=O)C3CCCC3)CC2)cc1,28.6,"16.4 µM [rising, partial curve, poor fit]",–
CC(=O)Nc1ccc(S(=O)(=O)c2ccc([N+](=O)[O-])cc2)cc1,-26.1,–,–
O=C(NCc1ccco1)c1cc(-c2ccccc2)c(N2CCOCC2)s1,2.61,"2.31 µM [rising, partial curve]",–
COc1ccc(-c2nnc3cccc(Cl)n23)c(OC)c1,13.6,"25.9 µM [falling, partial curve]",–
CCOc1ccc(S(=O)(=O)N2CCN(C(=O)CCC(=O)N3CCOCC3)CC2)cc1,6.74,"32.6 µM [falling, single point]",–
COCCN(C(=O)Nc1ccc(OC)cc1OC)C1CCN(C(C)C)CC1,–,–,"4.11 µM [falling, partial curve]"
CC(=O)CSc1nnc(C(F)(F)F)n1C,-20.1,"32.6 µM [falling, single point]",–
CCN1C(=O)/C(=C/c2cc(C)n(C)c2C)SC1=Nc1ccc(OC)cc1,0.551,"6.51 µM [rising, single point]","6.51 µM [rising, single point]"
COc1ccc(-c2cc(-n3c(C(F)(F)F)nc4ccccc43)n(CCC#N)n2)cc1,-27.1,"16.4 µM [falling, single point]",–
O=C1C2C3C=CC(C4CC34)C2C(=O)N1c1cc(Cl)ccn1 (stereo unspecified),-3.94,"6.51 µM [falling, single point]","0.00517 µM [falling, full curve, poor fit]"
CN1CCC(OC(=O)Cc2ccc(Cl)cc2)CC1,-19.7,"4.11 µM [falling, single point]",–
COc1ccc(CNC(=O)C(C)n2nc(C)c3c(C)n(-c4ccc(C)cc4)nc3c2=O)cc1 (stereo unspecified),5.73,"29.1 µM [rising, single point]",–
CC(C)C(NC(=O)c1ccc(Cl)cc1Cl)C(=O)NCCc1ccccn1 (stereo unspecified),10,–,–
COc1cc(/C=N/NC(=O)Cc2csc(C)n2)ccc1OCC(C)C,39.6,"6.51 µM [rising, single point]","6.51 µM [rising, single point]"
